Test results published in the supplement of paper PMC10331698.
± gives the standard deviation of the averaged measurements. Most entries show no effect beyond the scatter of the controls.

Key:
Experiment in all cases: level (log10 ratio to DMSO vehicle control); higher = higher biomarker level / cell amount than vehicle control
[1] = compound: FC(F)(F)COC(OCC(F)(F)F)OCC(F)(F)F [tris(Trifluoroethoxy)methane] (in DMSO); conditions: 2200 nM
Description: (§1)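 BioMAP Diversity Plus panel of 12 human primary cell co-culture systems (3C, 4H, LPS, SAg, BT, BF4T, BE3C, CASM3C, HDF3CGF, KF3CT, MyoF, Mphg). Compounds were added 1 h before stimulation and left for 24 h (MyoF 48 h; BT 72 h for soluble read-outs or 6 d for IgG). Biomarkers were read by ELISA, cytotoxicity by SRB, PBMC viability and proliferation by Alamar Blue. Each well value was divided by the mean of 8 DMSO control wells on the same plate and log10 transformed; duplicate blinded samples were tested at 4 concentrations.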

[2] = compound: O=S(=O)(O)C(F)(F)C(F)(F)C(F)(F)C(F)(F)F [Perfluorobutanesulfonic acid] (in DMSO)
Description: as §1

[3] = compound: OCC(F)(F)C(F)(F)C(F)(F)C(F)(F)C(F)(F)C(F)(F)CO [1H,1H,8H,8H-Perfluorooctane-1,8-diol] (in DMSO); conditions: 2200 nM
Description: as §1

[4] = compound: OCCCC(F)(F)C(F)(F)C(F)(F)C(F)(F)C(F)(F)C(F)(F)C(F)(F)C(F)(F)F [3-(Perfluorooctyl)propanol] (in DMSO); conditions: 2200 nM
Description: as §1

[5] = compound: OCC(F)(F)OC(F)(F)C(F)(F)OC(F)(F)CO [1H,1H,8H,8H-Perfluoro-3,6-dioxaoctane-1,8-diol] (in DMSO); conditions: 2200 nM
Description: as §1

[6] = compound: O=C(O)C(F)(F)C(F)(F)C(F)(F)C(=O)O [Hexafluoroglutaric acid] (in DMSO)
Description: as §1

[7] = compound: FC(F)(F)C(F)(F)CNCC(F)(F)C(F)(F)F [Bis(1H,1H-perfluoropropyl)amine] (in DMSO); conditions: 2200 nM
Description: as §1

[8] = compound: OCC(F)(F)C(F)(F)C(F)(F)C(F)F [1H,1H,5H-Perfluoropentanol] (in DMSO); conditions: 2200 nM
Description: as §1

[9] = compound: OCC(F)(F)C(F)(F)C(F)(F)C(F)(F)C(F)(F)C(F)(F)F [6:1 Fluorotelomer alcohol] (in DMSO); conditions: 2200 nM
Description: as §1

[10] = compound: O=C(O)C(F)(F)C(F)(F)C(F)(F)C(F)(F)C(F)(F)F [Perfluorohexanoic acid] (in DMSO)
Description: as §1

[11] = compound: O=C(O)C(F)(OC(F)(F)C(F)(OC(F)(F)C(F)(OC(F)(F)C(F)(F)C(F)(F)F)C(F)(F)F)C(F)(F)F)C(F)(F)F [Perfluoro-(2,5,8-trimethyl-3,6,9-trioxadodecanoic)acid] (in DMSO); conditions: 370 nM
Description: as §1

[12] = compound: O=C(O)C(F)(F)C(F)(F)C(F)(F)OC(F)(C(F)(F)F)C(F)(F)F [Perfluoro-4-isopropoxybutanoic acid] (in DMSO); conditions: 2200 nM
Description: as §1

[13] = compound: FC(F)(F)C(F)(F)C(F)(F)C(F)(F)CCI [1H,1H,2H,2H-Perfluorohexyl iodide] (in DMSO); conditions: 2200 nM
Description: as §1

[14] = compound: C=C(C)C(=O)OCCC(F)(F)C(F)(F)C(F)(F)C(F)(F)C(F)(F)C(F)(F)F [6:2 Fluorotelomer methacrylate] (in DMSO); conditions: 2200 nM
Description: as §1

[15] = compound: CNS(=O)(=O)C(F)(F)C(F)(F)C(F)(F)C(F)(F)C(F)(F)C(F)(F)C(F)(F)C(F)(F)F [N-Methylperfluorooctanesulfonamide] (in DMSO); conditions: 2200 nM
Description: as §1

[16] = compound: O=C(O)CCC(F)(F)C(F)(F)C(F)(F)F [3:3 Fluorotelomer carboxylic acid] (in DMSO); conditions: 2200 nM
Description: as §1

[17] = compound: O=C(O)C(F)(OC(F)(F)C(F)(F)C(F)(F)F)C(F)(F)F [Ammonium perfluoro-2-methyl-3-oxahexanoate] (in Water)
Description: as §1

Test System	level (log10) [1]	level (log10) ([2]; 2200 nM)	level (log10) ([2]; 6700 nM)	level (log10) ([2]; 20000 nM)	level (log10) ([2]; 60000 nM)	level (log10) [3]	level (log10) [4]	level (log10) [5]	level (log10) ([6]; 2200 nM)	level (log10) ([6]; 6700 nM)	level (log10) ([6]; 20000 nM)	level (log10) ([6]; 60000 nM)	level (log10) [7]	level (log10) [8]	level (log10) [9]	level (log10) ([10]; 2200 nM)	level (log10) ([10]; 6700 nM)	level (log10) ([10]; 20000 nM)	level (log10) ([10]; 60000 nM)	level (log10) [11]	level (log10) [12]	level (log10) [13]	level (log10) [14]	level (log10) [15]	level (log10) [16]	level (log10) ([17]; 2200 nM)	level (log10) ([17]; 6700 nM)	level (log10) ([17]; 20000 nM)	level (log10) ([17]; 60000 nM)
BE3C:CXCL9/MIG	0.002 ± 0.018	0.009 ± 0.018	0.01 ± 0.034	0.0025 ± 0.023	0.013 ± 0.0057	-0.0055 ± 0.0021	-0.006 ± 0.023	0.0025 ± 0.0092	-0.0065 ± 0.021	0.001 ± 0.0042	0.008	-0.0055 ± 0.0021	-0.002 ± 0.021	0.006 ± 0.0085	0.002 ± 0.0014	0.004 ± 0.014	0.005 ± 0.0014	0 ± 0.0099	0.001 ± 0.0099	0.0065 ± 0.00071	0.0005 ± 0.026	0.018 ± 0.011	0.022 ± 0.04	0.024 ± 0.0042	0.008 ± 0.0099	0.0015 ± 0.005	0.0065 ± 0.013	0.0045 ± 0.005	0 ± 0.0042
BE3C:CXCL10/IP-10	-0.0065 ± 0.015	0.0065 ± 0.035	0.009 ± 0.038	-0.0015 ± 0.028	0.0005 ± 0.018	0 ± 0.0028	0.0075 ± 0.0064	0.0135 ± 0.00071	-0.003 ± 0.016	-0.001 ± 0.0042	-0.0085 ± 0.00071	0.0015 ± 0.023	-0.0075 ± 0.046	0.0015 ± 0.021	0.031 ± 0.021	0.0265 ± 0.037	0.0095 ± 0.018	0.0125 ± 0.0092	0.0245 ± 0.011	0.043 ± 0.041	0.006 ± 0.023	0.01 ± 0.0042	0.029 ± 0.073	-0.016 ± 0.0071	0.0055 ± 0.0078	-0.0105 ± 0.011	-0.0095 ± 0.013	-0.001 ± 0.0042	0.0115 ± 0.0092
BE3C:CXCL11/I-TAC	-0.003 ± 0.0014	0.001 ± 0.013	0.0115 ± 0.012	0.0065 ± 0.00071	0.007 ± 0.0071	-0.006 ± 0.0014	-0.004 ± 0.0028	0.011 ± 0.0057	-0.0095 ± 0.013	0.0045 ± 0.028	-0.002 ± 0.024	0.0045 ± 0.013	-0.0015 ± 0.018	0.013 ± 0.0028	0.0255 ± 0.011	0.011 ± 0.0085	0.008 ± 0.014	0.0065 ± 0.0064	0.027 ± 0.0042	0.016 ± 0.035	-0.0055 ± 0.015	-0.0035 ± 0.016	0.0005 ± 0.0064	-0.0155 ± 0.012	0.0055 ± 0.026	0.005 ± 0.0071	-0.011 ± 0.0057	0.0115 ± 0.0021	-0.0045 ± 0.0078
BE3C:EGFR	0.0245 ± 0.032	-0.007 ± 0.035	-0.0045 ± 0.021	0 ± 0.018	0.0005 ± 0.0092	-0.0185 ± 0.0092	-0.015 ± 0.024	-0.014 ± 0.011	-0.0035 ± 0.015	-0.0055 ± 0.0035	-0.0175 ± 0.005	0.0025 ± 0.012	-0.0035 ± 0.025	-0.001 ± 0.016	0.0135 ± 0.019	-0.004	0.003 ± 0.0014	-0.005 ± 0.0028	0.0025 ± 0.015	0.015 ± 0.016	0.018 ± 0.064	0.043 ± 0.023	0.036 ± 0.062	0.0195 ± 0.018	-0.0005 ± 0.011	-0.001 ± 0.057	-0.016 ± 0.023	-0.009 ± 0.0085	0.005 ± 0.0057
